In the supplement of paper PMC3334620:
In all, about 33,000 sequences were measured (“E-score (-0.5 to 0.5)”: median about -0.0014, highest 2% from about 0.25 on). The list shows a part of the results.

Target: T1, Cad1 (UniProt P24813)
T1 sequence: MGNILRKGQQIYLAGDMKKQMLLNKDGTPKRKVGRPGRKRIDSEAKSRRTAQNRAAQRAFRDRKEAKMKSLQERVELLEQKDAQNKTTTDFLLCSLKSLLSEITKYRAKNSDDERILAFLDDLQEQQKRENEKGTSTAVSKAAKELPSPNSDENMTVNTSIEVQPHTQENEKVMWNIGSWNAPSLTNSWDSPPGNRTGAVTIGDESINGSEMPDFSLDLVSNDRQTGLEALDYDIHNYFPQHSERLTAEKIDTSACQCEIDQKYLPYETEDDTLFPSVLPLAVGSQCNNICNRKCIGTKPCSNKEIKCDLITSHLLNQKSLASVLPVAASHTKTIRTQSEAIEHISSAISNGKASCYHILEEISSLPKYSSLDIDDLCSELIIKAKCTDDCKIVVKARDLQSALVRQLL
Experiment: PBM E-score (8-mer binding enrichment) (E-score (-0.5 to 0.5)); higher = stronger / more preferred TF binding
Conditions: protein concentration: 100 nM; construct: GST-full length
Procedure, shortened: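 Yeast transcription factors carrying a GST tag, as full-length proteins or DNA-binding domains, were produced by PURExpress in vitro transcription/translation. About 100-200 nM protein was applied to universal all-10-mer Agilent arrays, double-stranded by primer extension on fresh or once-stripped slides. Bound protein was detected with fluorescent anti-GST, and scans were normalised with masliner. The Universal PBM Analysis Suite gave each ungapped eight-base word, pooled with its reverse complement, an E-score, a modified Wilcoxon-Mann-Whitney statistic.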

Sequence	PBM E-score
CACACTAG	0.043
CTGTGCTC	0.167
GAACTCAA	-0.06
GCACTAAC	0.0507
GAAAGGGA	-0.278
AGCGGCTG	-0.0714
CACAGTCC	0.0338
AATTTTGT	0.143
AGCACGAC	-0.162
AATTCAGC	-0.0551
ATCCTGGC	0.0259
TAAATACA	0.0881
TCGTGAAA	0.0207
GTGACAAA	0.229
GGACCCGA	-0.166
AACCTTAG	-0.22
AACTCTCG	-0.0932
GGACTTTA	0.0423
TGTGCTAA	0.0827
AAATAATA	0.248
AACGTGCT	-0.171
GCACCCGA	-0.0648
AGACTTAT	-0.082
CCCCGCCA	0.104
AGTATGCG	-0.0369

Sequence	PBM E-score
CAGTTATG	0.172
AGGCGTCG	-0.0234
AGCAGGGG	-0.258
ATGGTGCC	-0.101
ACCAACGG	-0.0928
AGCGGTTG	0.0307
CGGCAGAC	-0.0811
ATTCGGTC	0.0825
GAGACAGA	-0.0548
GGTGGGCA	-0.0317
CCACTACG	0.0167
AAACGTCA	-0.123
ACGGACGC	-0.0868
ACCGCGCA	-0.0142
GAACGAGA	0.162
GTTGGCCA	-0.256
CAACGCGA	0.157
AGTATCAA	0.113
CCGCTTCG	-0.194
AACAAGCA	-0.0911
CGGTTGGA	-0.167
CCGGCGCG	-0.0246
TATGTAAA	0.148
ATCATCAG	-0.0783
ATTGAAAT	0.248

Laid out differently: results already given
Sequence | PBM E-score
AGTATCAA | 0.113
CCGCTTCG | -0.194
AACAAGCA | -0.0911

Remaining list, next part.

Sequence	PBM E-score
AGATGGTG	-0.181
TTTACAAA	0.177
ATTGCAGG	0.128
GGAGAATA	0.0961
ACCTCATG	-0.226
GCCGCAGC	-0.0694
GTAATTAC	0.33
GTGTCCAA	0.0583
ACCGTAGC	-0.199
CAGAAGCG	-0.155
CGTGCGGC	-0.146
GTTTTAAA	0.139
GCGGGTGA	-0.0382
GATATTTA	0.115
CGTCAACC	-0.125
TAGTTGCA	-0.05
ACGCTGGA	-0.0353
CTGTTATC	0.0403
CAGGGAGG	-0.312
CCACGACA	0.0688
GTTTGACA	0.0662
CCCGCCGC	-0.0389
TGAAAGAA	0.253
CTGCAGTA	-0.04
TCTAAAAA	-0.0235

Sequence	PBM E-score
ACCTTTTC	-0.0763
CATCACCA	0.118
AAGGGGAG	-0.259
CGGGTAGA	0.0106
ATTTGCGA	0.0459
CCTCCACG	-0.0764
CCCCGTGC	-0.033
CCTTTATA	-0.188
ACATAACG	0.12
ACCACTCC	-0.0374
ACAGGTAT	0.0712
AGAAGATG	-0.127
AGCCTTTA	-0.0489
GTGCGAAC	-0.111
ATCGCGGA	0.0704
CTACAGTC	-0.228
TACGACAA	0.068
CGCGTACC	-0.0111
AAAAGAAT	0.257
GACGCGAA	-0.0345
CCATGTTC	-0.0966
AGATCCGG	0.00585
ACGATAGA	-0.0807
ACGCACGT	-0.179
ACGATCAC	0.0762

Sequence	PBM E-score
ATGCTGGC	0.0551
CGAAATTC	-0.0593
AAGTACCT	-0.0692
ACGCCGCG	0.0407
TACGCGGA	-0.0177
AATAGCCC	-0.148
ATTGGTTA	0.203
CGGAAATA	0.23
AACTGCTT	0.00568
CCCGAACA	0.027
GGTTGCAA	0.0552
AGAATGTA	-0.00484
GCCCAGCC	-0.0672
AAAACGGT	-0.0977
ATTTTGAC	0.135
CTACCGAC	0.00538
CTGAAACC	0.0965
GCAAAACC	0.0369
AAACAAAT	0.113
AATCACAG	0.0986
CAATTACG	0.0074
ACTGATCC	0.119
AACCACCC	-0.131
GACTATAA	-0.0277
CAGAACGG	-0.119

Sequence	PBM E-score
ACACGTAT	0.0275
CCCTAGAA	-0.147
CGTCCCGA	-0.168
GTATTTAA	0.0263
ATTTTCCC	0.00868
GGCACACC	-0.298
CGACTAAG	-0.00537
TCTGCAGA	0.0906
TCTACGAA	-0.0885
CCATACTA	0.0779
CTCGTACC	0.00387
ATTTGATA	0.204
AGCATACT	0.00806
AGATCTAG	-0.0949
ATACACCA	0.12
ATAGATAT	0.0925
ACAACCTG	0.00186
AGTGTCGC	-0.011
AGTGGGAG	-0.0654
ACGTAAGG	0.0985
GCCTCGAC	-0.224
AGCAAGAG	-0.0637
GCATATGC	0.092
ACGCCGGC	0.141
ACTGAACA	0.213

Reprinted at random: 2 records from the list
Sequence	PBM E-score
CCTTTATA	-0.188
AAGTACCT	-0.0692

Going on with the list:

Sequence	PBM E-score
GAGGATAA	0.135
TACACATA	0.152
AGGTAGCG	-0.0253
AGGGCTGA	-0.0362
CTGCTTTC	0.0536
ATGGACAC	0.0821
AAGTAAAT	0.0942
CGGTAGCA	-0.0437
ACGCGGCA	0.00015
AGGGCCGA	0.122
AAGCATGC	0.0819
AGCTGTGC	-0.0191
GAAAAGAA	0.0494
CAGGATGC	-0.0999
GTGCGTTA	0.146
TGATACAA	-0.0341
GATGGCCA	0.116
ACTCCCAC	-0.26
CACCCTGA	-0.06
GACAGGAA	0.167
ACCATTCT	-0.184
CTGTATGA	0.112
